Some targets named below: SPIB (UniProt Q01892); ETV5 (UniProt P41161); ELF4 (UniProt Q99607).
Test in all cases: DAPPL (digital affinity profiling via proximity ligation, sequencing)
Conditions in all cases: 10 mM Tris-HCl pH 7.5, 50 mM NaCl, 1 mM DTT, 4% glycerol, room temperature, 30 min; GST-TFs on glutathione beads, 16-mer random dsDNA library, 0.1% …; high values mean tight binding; double strand, one strand shown; scale: fold enrichment (6-mer frequency, TF over GST control)

Sequences of proteins named here, by UniProt entry; tags and fusion partners are left off. A change or cut given only in a name is not applied to a line headed by its entry.
UniProt Q01892: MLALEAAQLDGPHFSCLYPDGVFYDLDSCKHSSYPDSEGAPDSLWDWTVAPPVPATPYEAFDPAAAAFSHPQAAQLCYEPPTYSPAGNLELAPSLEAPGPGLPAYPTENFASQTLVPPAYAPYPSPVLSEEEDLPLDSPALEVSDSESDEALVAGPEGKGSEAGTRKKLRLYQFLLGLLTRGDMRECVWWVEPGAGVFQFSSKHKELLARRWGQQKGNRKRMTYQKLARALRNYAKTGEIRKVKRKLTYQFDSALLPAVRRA
UniProt P41161: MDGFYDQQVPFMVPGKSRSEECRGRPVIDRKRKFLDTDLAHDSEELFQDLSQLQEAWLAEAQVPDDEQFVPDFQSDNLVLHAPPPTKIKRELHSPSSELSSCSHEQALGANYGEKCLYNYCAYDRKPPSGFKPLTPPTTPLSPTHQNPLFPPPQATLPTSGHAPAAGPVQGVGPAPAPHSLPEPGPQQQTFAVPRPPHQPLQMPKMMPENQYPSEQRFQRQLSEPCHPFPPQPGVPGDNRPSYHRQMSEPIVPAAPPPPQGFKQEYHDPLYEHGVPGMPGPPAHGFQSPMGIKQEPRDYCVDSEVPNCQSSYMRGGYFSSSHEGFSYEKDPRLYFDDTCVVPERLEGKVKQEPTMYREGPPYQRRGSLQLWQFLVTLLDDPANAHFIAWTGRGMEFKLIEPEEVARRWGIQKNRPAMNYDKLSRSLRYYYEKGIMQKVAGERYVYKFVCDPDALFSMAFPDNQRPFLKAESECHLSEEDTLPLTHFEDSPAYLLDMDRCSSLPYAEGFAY
UniProt Q99607: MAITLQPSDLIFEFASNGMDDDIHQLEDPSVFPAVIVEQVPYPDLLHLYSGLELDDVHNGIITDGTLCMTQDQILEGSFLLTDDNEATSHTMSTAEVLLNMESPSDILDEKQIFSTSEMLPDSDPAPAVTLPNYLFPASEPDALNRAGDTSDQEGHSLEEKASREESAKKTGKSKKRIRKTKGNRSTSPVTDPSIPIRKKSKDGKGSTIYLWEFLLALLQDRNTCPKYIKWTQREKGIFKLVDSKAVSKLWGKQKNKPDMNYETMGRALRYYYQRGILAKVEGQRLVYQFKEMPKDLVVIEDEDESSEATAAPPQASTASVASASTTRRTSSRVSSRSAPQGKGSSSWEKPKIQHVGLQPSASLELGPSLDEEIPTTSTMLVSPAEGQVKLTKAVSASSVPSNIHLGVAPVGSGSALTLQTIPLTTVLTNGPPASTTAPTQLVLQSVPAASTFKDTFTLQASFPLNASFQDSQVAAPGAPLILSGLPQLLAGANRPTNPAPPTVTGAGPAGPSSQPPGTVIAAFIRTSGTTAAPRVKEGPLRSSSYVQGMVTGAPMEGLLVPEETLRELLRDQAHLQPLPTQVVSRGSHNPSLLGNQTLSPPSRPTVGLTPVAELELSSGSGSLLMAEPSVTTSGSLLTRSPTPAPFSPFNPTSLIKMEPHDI

The target in a further test is T1, FLI1 (UniProt Q01543).
T1 sequence: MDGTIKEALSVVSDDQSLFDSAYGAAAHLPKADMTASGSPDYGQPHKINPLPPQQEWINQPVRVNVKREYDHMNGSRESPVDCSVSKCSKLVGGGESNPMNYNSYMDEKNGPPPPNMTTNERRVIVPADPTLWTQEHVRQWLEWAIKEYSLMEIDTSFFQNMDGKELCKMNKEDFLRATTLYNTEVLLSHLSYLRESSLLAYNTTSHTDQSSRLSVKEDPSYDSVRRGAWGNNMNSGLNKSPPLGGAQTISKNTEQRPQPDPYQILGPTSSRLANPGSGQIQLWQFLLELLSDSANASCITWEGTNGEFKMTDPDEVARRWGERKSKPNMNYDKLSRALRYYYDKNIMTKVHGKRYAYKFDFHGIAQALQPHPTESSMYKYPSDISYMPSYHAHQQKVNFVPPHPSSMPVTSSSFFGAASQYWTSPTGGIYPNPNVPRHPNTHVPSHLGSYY

In a further test the target is T2, EHF (UniProt Q9NZC4).
T2 sequence: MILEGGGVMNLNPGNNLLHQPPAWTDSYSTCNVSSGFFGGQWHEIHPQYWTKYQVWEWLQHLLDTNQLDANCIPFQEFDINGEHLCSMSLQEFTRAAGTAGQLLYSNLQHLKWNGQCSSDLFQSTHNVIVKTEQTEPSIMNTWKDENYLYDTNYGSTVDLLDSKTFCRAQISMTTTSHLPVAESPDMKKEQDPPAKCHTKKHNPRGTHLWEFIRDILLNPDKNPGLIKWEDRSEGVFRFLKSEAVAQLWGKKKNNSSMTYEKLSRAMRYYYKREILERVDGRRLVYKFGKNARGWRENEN

In a further test the target is T3, ETV2 (UniProt O00321).
T3 sequence: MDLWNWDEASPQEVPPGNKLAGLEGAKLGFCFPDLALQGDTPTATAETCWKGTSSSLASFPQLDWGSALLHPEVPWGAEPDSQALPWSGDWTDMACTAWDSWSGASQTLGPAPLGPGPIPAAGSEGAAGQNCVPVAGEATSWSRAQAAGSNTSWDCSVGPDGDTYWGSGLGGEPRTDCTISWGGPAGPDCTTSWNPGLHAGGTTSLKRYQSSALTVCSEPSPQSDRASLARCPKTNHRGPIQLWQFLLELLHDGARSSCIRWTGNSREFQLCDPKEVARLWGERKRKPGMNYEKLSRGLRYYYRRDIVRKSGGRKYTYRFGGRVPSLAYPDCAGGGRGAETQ

The next test addresses T4, ETV3L (UniProt Q6ZN32).
T4 sequence: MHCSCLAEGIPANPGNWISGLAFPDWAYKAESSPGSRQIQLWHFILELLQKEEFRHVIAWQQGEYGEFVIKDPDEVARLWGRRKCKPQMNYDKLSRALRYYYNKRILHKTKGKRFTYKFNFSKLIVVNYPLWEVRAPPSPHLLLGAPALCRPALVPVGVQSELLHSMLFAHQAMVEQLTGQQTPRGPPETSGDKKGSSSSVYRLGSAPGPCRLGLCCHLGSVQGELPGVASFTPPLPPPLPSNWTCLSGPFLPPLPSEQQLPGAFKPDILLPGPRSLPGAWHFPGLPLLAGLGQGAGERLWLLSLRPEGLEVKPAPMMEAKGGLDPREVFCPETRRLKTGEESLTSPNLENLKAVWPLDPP

This is a selection; strong and weak results do not stand in their true shares. At the low end of the ranking, values are background and their order means little.

Take TCGAAA: the binding signal with FLI1 was determined as 0.978; with EHF, 0.978; with SPIB, 0.88; with ETV5 it was 0.972; with ELF4, 0.977; in the test with ETV2, 0.936. This sequence also registered a binding signal in the test with ETV3L of 0.954.
With GATTAG, the binding signal in the test with FLI1 was 0.881; with EHF it was 0.875; with SPIB, 0.771; in the test with ETV5 it was 0.86; in the test with ELF4, 0.919; with ETV2, 0.875. In the test with ETV3L, this sequence displayed a binding signal of 0.964.
GCATTA: the binding signal in the test with FLI1 came out at 0.773; with EHF it was 0.902; in the test with SPIB it was 0.825; with ETV5, 0.813; in the test with ELF4 it was 0.898; in the test with ETV2, 0.836. In addition, the binding signal with ETV3L was 0.891.
As to AGCATA, the binding signal with FLI1 came to 0.894; in the test with EHF, 0.967; with SPIB, 0.879; with ETV5 it was 0.933; in the test with ELF4, 0.947; with ETV2, 0.981. This sequence had a binding signal with ETV3L of 0.929.
Consider ATGAGG, for which the binding signal is 0.849 with FLI1; 0.979 with EHF; 0.996 in the test with SPIB; 0.979 with ETV5; 0.937 in the test with ELF4; 0.8 in the test with ETV2. In the test with ETV3L, the binding signal was found to be 0.972.
Turning to CGAGAA, the binding signal with FLI1 was determined as 0.87; with EHF, 0.888; with SPIB, 0.997; in the test with ETV5 it was 0.919; with ELF4, 0.88; with ETV2, 0.915. In addition, the binding signal with ETV3L was 0.882.
Take GTAAGC: the binding signal with FLI1 is 1.02; with EHF, 0.965; with SPIB, 0.894; in the test with ETV5, 0.839; with ELF4, 0.847; with ETV2, 0.922. This sequence returned a binding signal in the test with ETV3L of 0.908.
ACCGGT: the binding signal in the test with FLI1 came out at 0.931; in the test with EHF it was 0.839; with SPIB it was 0.956; in the test with ETV5, 0.913; with ELF4, 0.926; with ETV2 it was 0.769. The binding signal in the test with ETV3L was determined as 0.948.
For the sequence CATCAG, the binding signal in the test with FLI1 was found to be 1; with EHF, 1.03; with SPIB, 0.901; with ETV5 it was 0.927; with ELF4, 0.951; in the test with ETV2, 0.93. Moreover, in the test with ETV3L, the binding signal worked out at 0.901.
Take CCAAGA: the binding signal with FLI1 was found to be 0.903; with EHF, 0.932; with SPIB, 0.807; with ETV5, 0.876; with ELF4 it was 0.94; with ETV2, 0.925. In addition, in the test with ETV3L, the binding signal worked out at 0.864.
With AAGGCC, the binding signal in the test with FLI1 came to 0.89; in the test with EHF, 0.857; with SPIB, 0.977; with ETV5 it was 0.903; with ELF4, 0.925; with ETV2 it was 0.985. Moreover, the binding signal with ETV3L is 0.897.
On to CCAGAT, for which the binding signal with FLI1 is 0.925; with EHF it was 0.876; with SPIB it was 0.977; with ETV5, 0.872; in the test with ELF4, 0.919; in the test with ETV2, 0.822. The sequence also returned a binding signal with ETV3L of 0.928.
For the sequence GACTTG, the binding signal in the test with FLI1 is 0.926; with EHF, 0.816; with SPIB, 0.904; with ETV5 it was 0.79; in the test with ELF4, 0.87; with ETV2, 0.91. Besides, the binding signal with ETV3L was found to be 0.793.
For GTGGAA, the binding signal amounted to 0.911 with FLI1; 0.972 in the test with EHF; 0.983 with SPIB; 0.936 in the test with ETV5; 0.881 in the test with ELF4; 0.952 in the test with ETV2. Further, the binding signal with ETV3L worked out at 0.959.
As to GCGGCA, the binding signal with FLI1 turned out to be 0.885; with EHF, 0.809; in the test with SPIB, 0.861; in the test with ETV5, 0.847; with ELF4, 0.951; in the test with ETV2, 0.961. This sequence registered a binding signal in the test with ETV3L of 0.866.
With CCCTAG, the binding signal with FLI1 was found to be 0.951; with EHF it was 0.899; with SPIB it was 1.05; with ETV5 it was 0.909; with ELF4, 0.963; in the test with ETV2 it was 0.849. The sequence further had a binding signal with ETV3L of 0.935.
Consider GACCCC, for which the binding signal in the test with FLI1 is 0.955; in the test with EHF, 0.861; with SPIB, 0.941; with ETV5, 0.92; with ELF4 it was 0.953; with ETV2 it was 0.888. Also, the binding signal with ETV3L was found to be 0.893.
For the sequence GTTGAA, the binding signal came out at 0.863 in the test with FLI1; 0.944 with EHF; 0.828 with SPIB; 0.793 with ETV5; 0.891 in the test with ELF4; 0.909 with ETV2. In the test with ETV3L, the binding signal turned out to be 0.925.
As to CAAAGA, the binding signal is 0.875 with FLI1; 0.98 with EHF; 0.951 in the test with SPIB; 0.938 with ETV5; 0.934 with ELF4; 0.956 with ETV2. The sequence further gave a binding signal in the test with ETV3L of 0.902.
Take ACAAGT: the binding signal came out at 0.937 in the test with FLI1; 0.95 with EHF; 0.885 with SPIB; 0.911 with ETV5; 0.949 in the test with ELF4; 0.783 in the test with ETV2. In the test with ETV3L, this sequence displayed a binding signal of 0.89.
Consider GGTCCA, for which the binding signal was found to be 0.948 with FLI1; 0.964 with EHF; 0.859 with SPIB; 0.902 in the test with ETV5; 0.948 with ELF4; 0.874 with ETV2. The binding signal in the test with ETV3L was 0.893.
Consider AACGCG, for which the binding signal with FLI1 came out at 0.988; with EHF, 0.943; with SPIB it was 1; in the test with ETV5 it was 0.956; with ELF4, 1.01; in the test with ETV2 it was 0.901. This sequence also yielded a binding signal with ETV3L of 0.966.

Values taken from paper PMC7862700.
